No constants are given. Whether binding was seen depends on the method and setting. In cells and extracts the contact can be indirect. Some entries that bind do so weakly or less than the wild type.
Target: full-length androgen receptor (AR), ectopically expressed (human) (UniProt P10275)
Test: co-IP; HeLa cells co-transfected with AR and ELK1 or ELK1 mutants; RIPA lysates (500 μg); immunoprecipitation with anti-AR antibody (ab74272) on protein A-agarose, 4 °C overnight; blot with anti-AR and anti-ELK1

Sequences of proteins named here, by UniProt entry; tags and fusion partners are left off.
UniProt P10275: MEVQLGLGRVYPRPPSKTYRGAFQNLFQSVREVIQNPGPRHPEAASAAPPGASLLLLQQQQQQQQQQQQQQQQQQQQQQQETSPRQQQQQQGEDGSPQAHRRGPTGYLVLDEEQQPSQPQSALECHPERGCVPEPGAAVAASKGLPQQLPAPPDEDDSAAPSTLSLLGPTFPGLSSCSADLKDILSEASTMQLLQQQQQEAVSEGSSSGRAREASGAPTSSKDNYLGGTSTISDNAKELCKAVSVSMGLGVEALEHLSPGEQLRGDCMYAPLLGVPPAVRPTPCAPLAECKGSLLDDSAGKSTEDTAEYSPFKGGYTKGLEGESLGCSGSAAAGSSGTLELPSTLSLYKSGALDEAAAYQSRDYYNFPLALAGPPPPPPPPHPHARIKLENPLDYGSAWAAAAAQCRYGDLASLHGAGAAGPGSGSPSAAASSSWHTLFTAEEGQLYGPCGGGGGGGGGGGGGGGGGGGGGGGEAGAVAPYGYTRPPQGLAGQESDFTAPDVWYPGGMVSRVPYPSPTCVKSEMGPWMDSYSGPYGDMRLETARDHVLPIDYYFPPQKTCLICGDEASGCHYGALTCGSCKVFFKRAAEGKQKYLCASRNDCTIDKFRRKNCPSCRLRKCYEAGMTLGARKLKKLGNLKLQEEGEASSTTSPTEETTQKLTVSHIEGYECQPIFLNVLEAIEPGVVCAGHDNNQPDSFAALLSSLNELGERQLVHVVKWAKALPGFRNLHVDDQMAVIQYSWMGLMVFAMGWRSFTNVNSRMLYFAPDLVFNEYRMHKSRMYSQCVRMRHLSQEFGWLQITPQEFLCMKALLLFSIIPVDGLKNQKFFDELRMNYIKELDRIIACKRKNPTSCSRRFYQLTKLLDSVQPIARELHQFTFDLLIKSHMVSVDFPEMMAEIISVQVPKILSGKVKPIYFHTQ

Row | binding | Binder
1 | binds | His-tagged ELK1 (natural protein, human, UniProt P19419 1-428, looked up, ELK1, recombinant; Construct details are in the supplemental material; also called purified ELK1) MDPSVTLWQFLLQLLREQGNGHIISWTSRDGGEFKLVDAEEVARLWGLRKNKTNMNYDKLSRALRYYYDKNIIRKVSGQKFVYKFVSYPEVAGCSTEDCPPQPEVSVTSTMPNVAPAAIHAAPGDTVSGKPGTPKGAGMAGPGGLARSSRNEYMRSGLYSTFTIQSLQPQPPPHPRPAVVLPSAAPAGAAAPPSGSRSTSPSPLEACLEAEEAGLPLQVILTPPEAPNLKSEELNVEPGLGRALPPEVKVEGPKEELEVAGERGFVPETTKAEPEVPPQEGVPARLPAVVMDTAGQAGGHAASSPEISQPQKGRKPRDLELPLSPSLLGGPGPERTPGSGSGSGLQAPGPALTPSLLPTHTLTPVLLTPSSLPPSIHFWSTLSPIAPRSPAKLSFQFPSSGSAQVHIPSISVDGLSTPVVLSPGPQKP
2 | no binding | ELK1 FxLa (protein, UniProt P19419 1-428) MDPSVTLWQFLLQLLREQGNGHIISWTSRDGGEFKLVDAEEVARLWGLRKNKTNMNYDKLSRALRYYYDKNIIRKVSGQKFVYKFVSYPEVAGCSTEDCPPQPEVSVTSTMPNVAPAAIHAAPGDTVSGKPGTPKGAGMAGPGGLARSSRNEYMRSGLYSTFTIQSLQPQPPPHPRPAVVLPSAAPAGAAAPPSGSRSTSPSPLEACLEAEEAGLPLQVILTPPEAPNLKSEELNVEPGLGRALPPEVKVEGPKEELEVAGERGFVPETTKAEPEVPPQEGVPARLPAVVMDTAGQAGGHAASSPEISQPQKGRKPRDLELPLSPSLLGGPGPERTPGSGSGSGLQAPGPALTPSLLPTHTLTPVLLTPSSLPPSIHFWSTLSPIAPRSPAKLSFQLASSGSAQVHIPSISVDGLSTPVVLSPGPQKP
3 | no binding | ELK1Δ308–321 (protein, UniProt P19419) MDPSVTLWQFLLQLLREQGNGHIISWTSRDGGEFKLVDAEEVARLWGLRKNKTNMNYDKLSRALRYYYDKNIIRKVSGQKFVYKFVSYPEVAGCSTEDCPPQPEVSVTSTMPNVAPAAIHAAPGDTVSGKPGTPKGAGMAGPGGLARSSRNEYMRSGLYSTFTIQSLQPQPPPHPRPAVVLPSAAPAGAAAPPSGSRSTSPSPLEACLEAEEAGLPLQVILTPPEAPNLKSEELNVEPGLGRALPPEVKVEGPKEELEVAGERGFVPETTKAEPEVPPQEGVPARLPAVVMDTAGQAGGHAASSPEIPLSPSLLGGPGPERTPGSGSGSGLQAPGPALTPSLLPTHTLTPVLLTPSSLPPSIHFWSTLSPIAPRSPAKLSFQFPSSGSAQVHIPSISVDGLSTPVVLSPGPQKP
